Experimental data as given in patent publication US20240317851A1 (LANOVA MEDICINES, published 2024).

Target: cyno Claudin 6 (cyno)
Test: flow cytometry, engineered cells expressing cyno CLDN6

B1: 97-C10E1-2-P1.z5 (antibody, V domains shown)
VH: QVQLVQSGAEVKKPGASVKVSCKASGYAFTGYTMNWVRQAPGQGLEWIGLSNPYNAGTIYNQKFKGRVTMTVDKSTSTVYMELSSLRSEDTAVYYCARNYYYGSSYAYYYAMDYWGQGTTVTVSS
VL: DIVVTQSPSSLSTSVGDRVTITCRSSTGAVTTSNYANWVQEKPGKAFKGLIGGTNNRAPGVPARFSGSLSGDDAALTISSAQPEDFATYFCALWYSNHWVFGGGTKVEIK
notes: also called candidate antibody
- binding: binds

Results are given in words; binding and its absence hold for the method and conditions named. Binding can be weak; no strength is given.
